Measurements from the supplement of paper PMC5949888.
Most values lie at the floor of the assay. Slopes are relative: functional sequences can read slightly below zero.

What follows are substances tested on Saccharomyces cerevisiae PS128 hsf1 delta, HSF1(1-493) fusion (assay: growth estimate (transactivation domain function in HSF1 fusion, heat-shock survival) (a.u. (slope of normalised read count over time)); higher = stronger growth at 37°C, i.e. more transactivation activity). Settings: library: random library.
Procedure: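 Random 60-nt DNA library encoding peptides of up to 20 aa, fused to the C-terminus of yeast HSF1 residues 1-493 (C-terminal TAD deleted) and expressed from the native HSF1 promoter on a CEN plasmid in hsf1-deleted S. cerevisiae PS128. Cells were selected at 37°C on -trp 5-FOA plates for 0, 2, 4, 6 and 8 days and amplicons were sequenced. Growth estimate is the slope of a robust linear fit of total-sum-normalised read counts (normalised to the first time point) over time, using at least 2 replicates. Sequences are classed functional (TAD activity) above a threshold of -0.13, set from stop-codon control sequences.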

| Substance | growth estimate |
| --- | --- |
| LVDLATGHRYSRNCRMQGNQ | < -0.25 |
| CVQKACAMALR | < -0.25 |
| VCVRRAPQQVMRNSEGSRSR | < -0.25 |
| SRMLAWQTDILPNKCCTRFC | < -0.25 |
| GTECCCPSLHVLGSARLLRS | < -0.25 |
| LWIPQVL | < -0.25 |
| TQSRMPTCKRGQSRKLT | < -0.25 |
| EPVYRRAGERHGMDGGCTN | < -0.25 |
| TVCSHLGPGNPHFSAT | < -0.25 |
| CVLSGSLGPRTAGLYGSSDK | < -0.25 |
| TRKGSTDNSALRLCRSIRTT | < -0.25 |
| LTSLTWSAGILCKSG | < -0.25 |
| PDKRDVRTVALGRVITTSFL | < -0.25 |
| STSSPVVPYGSYRCRDAAWS | < -0.25 |
| HAAAIGLREK | < -0.25 |
| CRLTRCLGPYLMDRPVLHSL | < -0.25 |
| ARLL | < -0.25 |
| CGPSSKGWCVP | < -0.25 |
| RYFLGKEPGRE | < -0.25 |
| ILWSNQEPRDRECDRRSLEV | < -0.25 |
| CANTGCNSDPKGFAYIRP | < -0.25 |
| VNVLISRL | < -0.25 |
| WSHSATKTSFGLEI | < -0.25 |
| IYLTPSSTFENC | < -0.25 |

| Substance | growth estimate |
| --- | --- |
| QGMTLGESLKSGSVAVVHRE | < -0.25 |
| EGWRSW | < -0.25 |
| SGNNSFWE | < -0.25 |
| RWNERFVPWIWWIPPVSGSV | < -0.25 |
| FDSTAAEESQGSISVDRSAV | < -0.25 |
| KSCIYEHV | < -0.25 |
| VRTLASCGQRVWSSRIRGRS | < -0.25 |
| STKAGLFRRMCGRLPQK | < -0.25 |
| LIQ | < -0.25 |
| PGTLGRIGSRTNQSLEYRIR | < -0.25 |
| SWAVRYRLH | < -0.25 |
| SKFFQPFFCAIFCEW | < -0.25 |
| NLALTFYEKAERT | < -0.25 |
| FRESSMRSRSYAGVIVLTYV | < -0.25 |
| RSWAVILHWAGNAM | < -0.25 |
| TATRGRMYVSAHRSSAIQPA | < -0.25 |
| YPRPYYTEGCEIVDVRASDK | < -0.25 |
| LIHLGDFRQ | < -0.25 |
| RNRVSLS | < -0.25 |
| LVLFPSDFSYA | < -0.25 |
| SLIS | -0.203 |
| RRERFIFECLNHSCTGSPGW | < -0.25 |
| SRRTKENRYTRMEVM | < -0.25 |
| QLDGFRT | < -0.25 |

| Substance | growth estimate |
| --- | --- |
| LCRPVLENNARAHGA | < -0.25 |
| VSKD | < -0.25 |
| SGITT | < -0.25 |
| RISTSSWITSLCHQSLKIPQ | < -0.25 |
| ICVKP | < -0.25 |
| HNLAVCHSIFQRSRAACAHL | < -0.25 |
| SYGQCPSP | < -0.25 |
| IRTYTCVKRRTPTSPSAR | < -0.25 |
| VLGAREGLVDHVVQSGNAQV | < -0.25 |
| WNG | < -0.25 |
| IRWGALTANERRRHIGV | < -0.25 |
| FGGARVHARTKGLSTAEVKP | < -0.25 |
| LAITKGGAVQRYRTMVLVSV | < -0.25 |
| LILHALVDAPRQFEKSE | < -0.25 |
| GMSGSPVLEARGKRSGGGGR | < -0.25 |
| QIRGSTLYIQPRSGVNSTA | < -0.25 |
| ATVTSSGTLDVVM | -0.184 |
| EQVPSSRVHASSPPKN | < -0.25 |
| PGNFQGD | < -0.25 |
| SWSGRR | < -0.25 |
| ASCMSQGVLTKSSRRQTVRV | < -0.25 |
| VATTLCVSRFDYSLGSGNVT | < -0.25 |
| GRLYHARLMAQSPCMGGGVV | < -0.25 |
| QRGEFVPTYVVGLKTRRHTT | < -0.25 |

| Substance | growth estimate |
| --- | --- |
| PSQFAA | < -0.25 |
| FNDT | < -0.25 |
| IRLPGVLI | < -0.25 |
| VALLTIWDWVGGLSGGYNHA | < -0.25 |
| IGDSIVHGG | < -0.25 |
| AGGGTGQGTSSIQVRSLRRR | < -0.25 |
| PGGIGPGSHSGAWG | < -0.25 |
| CGIRSGGWK | < -0.25 |
| ELGGGAIWV | < -0.25 |
| LYLSESKRTHECQWR | < -0.25 |
| GWATSCW | < -0.25 |
| RWIEEICLEGARGRLWIQPF | < -0.25 |
| ILGFRDAALR | < -0.25 |
| HKAVGAYRLL | < -0.25 |
| SLVGRGVD | < -0.25 |
| GDSMHSGLRWKI | < -0.25 |
| RSIRLSGVLHRYEGRTSFFA | < -0.25 |
| ANSIGAQKSTAFGWEQWRTD | < -0.25 |
| GLNVHAWGSSNNRGGDR | < -0.25 |
| SIENRG | < -0.25 |
| PAICPPHG | < -0.25 |
| LYRSVITPPQVSAMALSALP | < -0.25 |
| AEGGSWIWWVSD | < -0.25 |
| NSRENKLFAHLELDIAAPTI | < -0.25 |

Five consecutive records already listed:

| Substance | growth estimate |
| --- | --- |
| RSIRLSGVLHRYEGRTSFFA | < -0.25 |
| ANSIGAQKSTAFGWEQWRTD | < -0.25 |
| GLNVHAWGSSNNRGGDR | < -0.25 |
| SIENRG | < -0.25 |
| PAICPPHG | < -0.25 |
